Assay results: article PMC7819943, “Rice protein-binding microarrays: a tool to detect cis-acting elements near promoter regions in rice”
The list shows a part of the results.

Target: T1, OsSMF1 (Oryza sativa, UniProt Q6ZLB0 1-436)
T1 sequence: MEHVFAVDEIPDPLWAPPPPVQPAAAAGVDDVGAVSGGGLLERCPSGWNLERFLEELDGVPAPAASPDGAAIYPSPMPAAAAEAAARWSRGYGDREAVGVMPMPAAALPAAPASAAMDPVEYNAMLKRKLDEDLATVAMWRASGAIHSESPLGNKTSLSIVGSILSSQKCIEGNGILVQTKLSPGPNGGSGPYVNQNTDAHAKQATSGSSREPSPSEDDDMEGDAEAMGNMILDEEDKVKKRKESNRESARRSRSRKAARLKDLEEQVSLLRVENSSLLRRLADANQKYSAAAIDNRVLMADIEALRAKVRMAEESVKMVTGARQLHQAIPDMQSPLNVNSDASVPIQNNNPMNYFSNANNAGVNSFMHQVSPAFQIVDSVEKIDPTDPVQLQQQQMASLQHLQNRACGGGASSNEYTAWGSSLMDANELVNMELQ
Test: protein-binding microarray (RPBM); PBS, 2% BSA, 51.3 ng/ul salmon testes DNA, 50 uM zinc acetate, 200 nM TF, 25 C, 1 h; high values mean tight binding
Settings: protein: recombinant; tags: N-terminal polyhistidine and DsRed monomer fusion (pET32a); chain copies: 2; label: CyDye5-dUTP incorporated in the synthesized complementary strand; 3' TTTTT single-stranded linker to array surface; dsDNA, one strand shown
Summary of the method: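 The binding signal for each feature is its fluorescence intensity in arbitrary units. An Axon 4000B scanner was used to read a custom Agilent array that had been made double-stranded with Cy5-dUTP primer extension, blocked with 2% BSA, incubated at 25 °C for 1 h with 200 nM protein in PBS, 2% BSA, salmon testes DNA and 50 µM zinc acetate, and washed. The protein was an N-terminal polyhistidine–DsRed transcription factor fusion from E. coli BL21-CodonPlus, purified on Ni–NTA.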

Row | Sequence | binding signal
1 | AAGAGAAGGGTCACTAATACGTGGACCCTACATATTGACGCGGAGTCACCTAGTGCAG | 7690 fluorescence intensity (a.u.)
2 | ATCAAGCTTTCGTCAGATCTCACGCTTATTTCTTCTCTCCCGGAGTCACCTAGTGCAG | 3480 fluorescence intensity (a.u.)
3 | AGTGAAAATCGTGATAAACATCATTGATGACGTGAATAATCGGAGTCACCTAGTGCAG | 3640 fluorescence intensity (a.u.)
4 | CAGGCTCCTCCTCACAACGCCGAAGCCACGGGATGACGCTCGGAGTCACCTAGTGCAG | 3410 fluorescence intensity (a.u.)
5 | GGGTACCAGGAGGGAGCACACGTTCACCACGTGGAATCTACGGAGTCACCTAGTGCAG | 5750 fluorescence intensity (a.u.)
6 | CCTTTACTGTCTCAGCAACGTGCGTGGCTTCTTTTAAGTCCGGAGTCACCTAGTGCAG | 6410 fluorescence intensity (a.u.)
7 | CTCAGTAAAATCAACACTAGTTAATCTGGTCAACACATTACGGAGTCACCTAGTGCAG | 29500 fluorescence intensity (a.u.)
8 | TTCCCCACCCACCTCCCACCCTCCCCTCTCCAACCACACCCGGAGTCACCTAGTGCAG | 3320 fluorescence intensity (a.u.)
9 | CCACGCTAACTCAGCCACCACGTAGGCCAAATCCGGGATCCGGAGTCACCTAGTGCAG | 5500 fluorescence intensity (a.u.)
10 | GACTACGCGTACGCCACGCCACAACGCTTCTCGCTCTCCCCGGAGTCACCTAGTGCAG | 4510 fluorescence intensity (a.u.)
11 | CTAGGCAAGCATCCCACCTTCGTCGACCCACTGCTGCCGGCGGAGTCACCTAGTGCAG | 4050 fluorescence intensity (a.u.)
12 | CTACCTGCGTCGACGTGTGACACCCAAATCATCGGATTCACGGAGTCACCTAGTGCAG | 4680 fluorescence intensity (a.u.)
13 | CCCCGGGAGTAGGGTCGCTGATTACCTGGTGGGGAAGCACCGGAGTCACCTAGTGCAG | 3280 fluorescence intensity (a.u.)
14 | TCCAAGAAACCTGTCCATGAAGATGATGTTGGCTGGCGTTCGGAGTCACCTAGTGCAG | 3770 fluorescence intensity (a.u.)
15 | GAGTAAGGCCGCGCGGCGCGGCGCCGAGCCGCGTGTCGCGCGGAGTCACCTAGTGCAG | 4820 fluorescence intensity (a.u.)
16 | TGACCATGAATTACGTGTTTTATTCGTAGTCAAATTTATTCGGAGTCACCTAGTGCAG | 3510 fluorescence intensity (a.u.)
17 | GTGCCGTGCGTGCCAGCGTGCGTGCATGCATGCATGCACGCGGAGTCACCTAGTGCAG | 4270 fluorescence intensity (a.u.)
18 | GTGCGTGGAAGTCCATGGCCGTCGTCGCCTCCACCTTCCACGGAGTCACCTAGTGCAG | 3140 fluorescence intensity (a.u.)
19 | CACGCGGGACCATCGTGGTCCCACGTTTTGGCGGTGCGGGCGGAGTCACCTAGTGCAG | 5060 fluorescence intensity (a.u.)
20 | ATGGGCAACAAGCTTACGTCGAACGATACCTTGGCTAACTCGGAGTCACCTAGTGCAG | 3360 fluorescence intensity (a.u.)
21 | GTAGTACATACATACATACACGACTAAAATACACGTACGTCGGAGTCACCTAGTGCAG | 3200 fluorescence intensity (a.u.)

Row | Sequence | binding signal
22 | AGTGGGTGGTGGTGGTGGTGGTGGTGCGAGGCCGTCGCTGCGGAGTCACCTAGTGCAG | 3430 fluorescence intensity (a.u.)
23 | TCTTTATAATAGGAGCACATCTCAACCGTTGGATCGGGCGCGGAGTCACCTAGTGCAG | 4420 fluorescence intensity (a.u.)
24 | TCAATGTGTGCGTGTGTGGCCTATCTTTTCTTACTCTCTTCGGAGTCACCTAGTGCAG | 4970 fluorescence intensity (a.u.)
25 | TGATTACACGTACAAAATGTACACGTGTCACTCTATGGGGCGGAGTCACCTAGTGCAG | 25300 fluorescence intensity (a.u.)
26 | CTGGTTCGATCTGTACACGTGTATAAGCTCTACCATCTTGCGGAGTCACCTAGTGCAG | 11800 fluorescence intensity (a.u.)
27 | ATCGATTCTCTTCATGTGATCTTCACGTGTCCGGCCAATTCGGAGTCACCTAGTGCAG | 3940 fluorescence intensity (a.u.)
28 | CGCACGCTCCCCGACTCCGACTCCGATCCTCTCTCACGCACGGAGTCACCTAGTGCAG | 4900 fluorescence intensity (a.u.)
29 | AAGGTTCATCGGACCCACGTGTCAGCTGATTGCTTATTCTCGGAGTCACCTAGTGCAG | 15900 fluorescence intensity (a.u.)
30 | TGTGGGTTTATTGTCCAACGTTTAACCGTTCATCTTATTTCGGAGTCACCTAGTGCAG | 3420 fluorescence intensity (a.u.)
31 | CGTGCCGCCGATGCCTGTTGCCCTCGTGCCCACTGCCTAGCGGAGTCACCTAGTGCAG | 37500 fluorescence intensity (a.u.)
32 | GGGAAATCCTACTCCTAATAAATCCTAGTAGGCCAACACCCGGAGTCACCTAGTGCAG | 28800 fluorescence intensity (a.u.)
33 | TTTTGTTCATGTTGATGTCCACGGTGATTGTTCTAGTTATCGGAGTCACCTAGTGCAG | 3210 fluorescence intensity (a.u.)
34 | AGATGCCACGTGGGATAAAACCACCTTCGAAACTGCTCGGCGGAGTCACCTAGTGCAG | 11200 fluorescence intensity (a.u.)
35 | CCAGAAGCAGGTACCCGGTGCTGAGGCTGGTGCCAGCGCACGGAGTCACCTAGTGCAG | 3550 fluorescence intensity (a.u.)
36 | CGAGACGGCGTCACCGCCACACATGTAGCGTGCTGCGTGCCGGAGTCACCTAGTGCAG | 5160 fluorescence intensity (a.u.)
37 | CAATCGCAACACTCCTCCCATTTAATTCTACCAACTTTCTCGGAGTCACCTAGTGCAG | 3220 fluorescence intensity (a.u.)
38 | CGGCGCACGTGCATGGCCAAGCCGGGGCGTGACACCACGGCGGAGTCACCTAGTGCAG | 3650 fluorescence intensity (a.u.)
39 | TGGGAGTTCGGAGCTGGTCAGCATTATCAAGCTTGAGCTGCGGAGTCACCTAGTGCAG | 3170 fluorescence intensity (a.u.)
40 | CGGTCAAAGCTTGCACTATAGTTATCAGGATTGAGCACCACGGAGTCACCTAGTGCAG | 12500 fluorescence intensity (a.u.)
41 | GTTCCGGCGGGTGTACGGCACACTCAAGGCAGAGCTTCTCCGGAGTCACCTAGTGCAG | 17800 fluorescence intensity (a.u.)
42 | GTGGATGCTGCCGCGTCGCGACACGTCAGCGCGCGCTGGTCGGAGTCACCTAGTGCAG | 20700 fluorescence intensity (a.u.)

Exported tab-delimited: part of the list above.
Row	Sequence	binding signal
23	TCTTTATAATAGGAGCACATCTCAACCGTTGGATCGGGCGCGGAGTCACCTAGTGCAG	4420 fluorescence intensity (a.u.)
24	TCAATGTGTGCGTGTGTGGCCTATCTTTTCTTACTCTCTTCGGAGTCACCTAGTGCAG	4970 fluorescence intensity (a.u.)
